{
  "sequences": {"note": "Chains of the proteins cited; added tags and fusions are not shown. Lines headed by an entry give the natural chain unless they say otherwise; changes in a name come on top.", "UniProt Q13683": "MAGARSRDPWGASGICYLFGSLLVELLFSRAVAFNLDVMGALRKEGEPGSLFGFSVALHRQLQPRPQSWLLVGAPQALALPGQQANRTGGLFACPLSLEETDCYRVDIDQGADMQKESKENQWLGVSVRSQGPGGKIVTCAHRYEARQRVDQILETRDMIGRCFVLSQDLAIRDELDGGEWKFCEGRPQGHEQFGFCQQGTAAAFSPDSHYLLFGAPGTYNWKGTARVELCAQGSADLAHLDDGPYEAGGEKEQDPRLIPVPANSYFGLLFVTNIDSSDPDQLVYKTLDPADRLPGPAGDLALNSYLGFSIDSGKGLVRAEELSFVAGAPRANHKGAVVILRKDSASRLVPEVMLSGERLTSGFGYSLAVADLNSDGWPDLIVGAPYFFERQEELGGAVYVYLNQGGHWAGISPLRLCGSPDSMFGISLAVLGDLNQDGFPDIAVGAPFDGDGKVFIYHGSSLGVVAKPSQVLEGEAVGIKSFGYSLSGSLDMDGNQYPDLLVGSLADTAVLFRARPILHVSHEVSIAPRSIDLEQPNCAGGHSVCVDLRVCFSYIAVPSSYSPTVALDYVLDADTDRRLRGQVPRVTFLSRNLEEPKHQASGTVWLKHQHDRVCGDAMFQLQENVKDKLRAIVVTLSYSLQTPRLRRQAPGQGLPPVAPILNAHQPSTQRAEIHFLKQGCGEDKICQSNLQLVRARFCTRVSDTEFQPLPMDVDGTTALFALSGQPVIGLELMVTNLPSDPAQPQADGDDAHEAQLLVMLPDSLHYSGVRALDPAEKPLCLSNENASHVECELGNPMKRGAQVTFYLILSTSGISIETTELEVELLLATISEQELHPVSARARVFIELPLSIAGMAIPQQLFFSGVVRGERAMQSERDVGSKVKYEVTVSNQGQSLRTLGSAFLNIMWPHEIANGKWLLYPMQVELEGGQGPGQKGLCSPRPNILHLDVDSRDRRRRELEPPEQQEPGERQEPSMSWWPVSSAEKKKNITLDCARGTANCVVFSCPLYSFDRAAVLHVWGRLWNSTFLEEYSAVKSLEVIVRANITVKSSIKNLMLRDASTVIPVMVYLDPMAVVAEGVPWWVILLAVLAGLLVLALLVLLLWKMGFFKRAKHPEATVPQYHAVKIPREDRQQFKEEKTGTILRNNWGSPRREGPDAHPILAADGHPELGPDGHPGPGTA", "UniProt P05556": "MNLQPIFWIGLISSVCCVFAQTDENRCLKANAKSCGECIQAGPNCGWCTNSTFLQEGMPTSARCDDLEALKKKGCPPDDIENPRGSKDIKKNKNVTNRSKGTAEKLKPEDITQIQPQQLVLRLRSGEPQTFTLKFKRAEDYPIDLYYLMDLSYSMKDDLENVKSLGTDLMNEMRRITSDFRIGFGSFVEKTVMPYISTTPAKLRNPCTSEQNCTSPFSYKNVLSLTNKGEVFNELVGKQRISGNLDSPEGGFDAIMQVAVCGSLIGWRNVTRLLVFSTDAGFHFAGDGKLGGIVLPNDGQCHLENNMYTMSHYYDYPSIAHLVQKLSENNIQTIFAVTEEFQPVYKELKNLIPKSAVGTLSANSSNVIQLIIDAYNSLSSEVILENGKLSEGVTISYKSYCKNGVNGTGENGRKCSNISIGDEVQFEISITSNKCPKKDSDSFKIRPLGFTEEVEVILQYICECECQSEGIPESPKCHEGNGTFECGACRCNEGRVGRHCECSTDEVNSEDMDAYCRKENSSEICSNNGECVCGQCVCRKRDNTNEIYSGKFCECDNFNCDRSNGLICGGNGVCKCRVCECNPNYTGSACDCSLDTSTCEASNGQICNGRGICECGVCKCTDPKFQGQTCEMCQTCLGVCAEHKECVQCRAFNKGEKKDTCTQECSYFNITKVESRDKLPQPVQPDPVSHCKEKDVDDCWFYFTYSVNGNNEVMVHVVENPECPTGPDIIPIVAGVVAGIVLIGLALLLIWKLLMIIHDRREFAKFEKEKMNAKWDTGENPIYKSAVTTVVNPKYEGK", "UniProt Q61738": "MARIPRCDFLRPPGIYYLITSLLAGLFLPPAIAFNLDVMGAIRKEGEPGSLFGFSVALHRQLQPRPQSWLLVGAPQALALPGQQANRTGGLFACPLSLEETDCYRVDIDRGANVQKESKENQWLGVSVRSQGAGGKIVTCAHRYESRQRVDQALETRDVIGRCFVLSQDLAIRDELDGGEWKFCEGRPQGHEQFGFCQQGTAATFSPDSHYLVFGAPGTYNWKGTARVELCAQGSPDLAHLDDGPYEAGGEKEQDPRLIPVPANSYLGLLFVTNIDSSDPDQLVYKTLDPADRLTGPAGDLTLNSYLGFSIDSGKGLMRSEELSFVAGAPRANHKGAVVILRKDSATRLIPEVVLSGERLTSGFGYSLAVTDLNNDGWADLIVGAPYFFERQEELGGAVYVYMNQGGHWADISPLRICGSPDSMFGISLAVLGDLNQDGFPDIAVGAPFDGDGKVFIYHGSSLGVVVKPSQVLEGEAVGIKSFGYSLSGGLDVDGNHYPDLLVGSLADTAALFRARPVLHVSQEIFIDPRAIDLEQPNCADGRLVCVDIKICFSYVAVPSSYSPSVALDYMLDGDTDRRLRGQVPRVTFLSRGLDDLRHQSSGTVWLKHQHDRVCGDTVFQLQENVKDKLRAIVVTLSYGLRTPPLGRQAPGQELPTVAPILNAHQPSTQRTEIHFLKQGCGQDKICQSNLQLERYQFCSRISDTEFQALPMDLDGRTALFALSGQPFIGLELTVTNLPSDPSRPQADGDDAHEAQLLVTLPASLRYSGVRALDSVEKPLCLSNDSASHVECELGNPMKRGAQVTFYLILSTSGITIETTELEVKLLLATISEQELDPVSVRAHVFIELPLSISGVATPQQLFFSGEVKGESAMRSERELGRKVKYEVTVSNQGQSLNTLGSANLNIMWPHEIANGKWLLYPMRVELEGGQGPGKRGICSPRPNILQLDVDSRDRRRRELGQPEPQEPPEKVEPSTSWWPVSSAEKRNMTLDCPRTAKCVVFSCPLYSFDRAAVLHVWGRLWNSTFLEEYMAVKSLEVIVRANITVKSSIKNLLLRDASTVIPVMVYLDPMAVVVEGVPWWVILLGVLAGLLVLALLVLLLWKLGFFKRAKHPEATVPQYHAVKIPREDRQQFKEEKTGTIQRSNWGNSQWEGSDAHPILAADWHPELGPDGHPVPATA", "UniProt P09055": "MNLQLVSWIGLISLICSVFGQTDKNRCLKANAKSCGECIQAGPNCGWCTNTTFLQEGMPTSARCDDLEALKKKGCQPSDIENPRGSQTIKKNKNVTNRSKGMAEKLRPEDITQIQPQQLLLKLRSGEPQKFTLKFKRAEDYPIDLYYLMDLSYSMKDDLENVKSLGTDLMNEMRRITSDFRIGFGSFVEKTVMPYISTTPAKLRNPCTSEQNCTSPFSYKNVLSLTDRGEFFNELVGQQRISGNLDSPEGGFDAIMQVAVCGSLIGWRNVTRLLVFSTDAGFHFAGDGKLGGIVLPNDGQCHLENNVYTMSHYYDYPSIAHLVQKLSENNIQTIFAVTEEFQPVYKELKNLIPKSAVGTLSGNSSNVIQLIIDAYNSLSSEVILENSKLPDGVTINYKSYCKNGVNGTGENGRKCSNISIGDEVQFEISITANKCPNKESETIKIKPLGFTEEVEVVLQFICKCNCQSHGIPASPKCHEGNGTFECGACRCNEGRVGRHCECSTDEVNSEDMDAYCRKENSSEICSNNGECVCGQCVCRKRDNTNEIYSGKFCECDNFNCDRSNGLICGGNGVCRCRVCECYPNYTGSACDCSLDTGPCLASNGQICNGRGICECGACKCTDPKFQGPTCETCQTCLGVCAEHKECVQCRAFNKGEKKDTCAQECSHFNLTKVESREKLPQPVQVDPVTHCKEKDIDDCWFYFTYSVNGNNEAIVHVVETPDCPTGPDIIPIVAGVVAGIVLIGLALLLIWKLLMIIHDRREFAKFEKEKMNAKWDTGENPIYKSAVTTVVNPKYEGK"},
  "source": "patent US20210147526A1",
  "binders": {"B1": {"name": "VL3VHK20TFT monoclonal antibody (antibody, human IgG4 S228P, kappa, V domains shown)", "VH": "QVQLVQSGAEVKKPGASVKVSCKASGYTFTKYWINWVRQAPGQGLEWMGIIYPGSSTSNYNEKFKTRVTMTVDTSTSTAYMELSSLRSEDTAVYYCVKNDNWGQGTLVTVSS", "VL": "DIQMTQSPSSLSASVGDRVTITCRASESVDNYGISFMNWFQQKPGKAPKLLIYAASDLGSGVPSRFSGSGSGTDFTLTISSLQPEDFATYYCHQSKEVPYTFGQGTKLEIKR"}},
  "key": {"[1]": {"target": "Human Integrin α7β1 (human) (UniProt Q13683+P05556)", "assay": "binding kinetics, Example 4"}, "[2]": {"target": "Mouse Integrin α7β1 (mouse) (UniProt Q61738+P09055)", "assay": "binding kinetics, Example 4"}},
  "note": "No constants are given. Whether binding was seen depends on the method and setting. Some entries that bind do so weakly or less than the wild type.",
  "data": [
    {"binder": "B1", "values": [
      {"measurement": "binding", "setting": "[1]", "value": "binds"},
      {"measurement": "binding", "setting": "[2]", "value": "binds"}
    ]}
  ]
}
